Here are results for three molecules from patent publication US20200223912A1.

The target of assay [1] is microtubuli associated tau. Put plainly: ELISA.
Another assay concerns the target pTau(S422A) (human). Put plainly: Western blot on recombinant Tau, all antibodies 1 ug/ml. On the technique in general: A western blot detects proteins with antibodies after separation by electrophoresis.
In assay [2] the target is KLH (keyhole limpet haemocyanine). Put plainly: condition: 1:5 dilution of the cell culture supernatants; ELISA, single point.

Where a chain is given by its changes, count along the chain named. These are yes or no findings as the source states them, for the method shown. For some of these results: A result given as binding can be weak or reduced; the word gives no strength.

B1: rabbit antibody Mab 086 (VH00/VL00) (antibody, V domains shown)
VH: QSVEESGGRLVTPGTPLTLTCTVSGFSLSSNAINWVRQAPGKGLEWIGYIAVSGNTYYASWAKGRFTISKASTTVDLKMTSPTAEDTGTYFCGKSNIWGPGTLVTVSL
VL: AQVLTQTTSPVSAAVGSTVTISCQSSQSVRTNKLAWFQQKPGQPPKRLIYSASTLDFGVPSRFSASGSGTQFTLTISDVQCDDAATYYCLGYFDCSIADCVAFGGGTEVVVK
For B1, the binding entry in assay [1] is “no binding”; with pTau(S422A) (human) it was “binds”; in assay [2] it was “no binding”.

B2: VH32/VL21 (antibody, V domains shown)
VH: EVQVLESGGGLVQPGGSLRLSCAVSGFSLSSNAINWVRQAPGKGLEWVGYIAVSGNTYYASWAKGRFTISRDNSKNTVYLQMNSLRAEDTAVYYCGKSNIWGQGTLVTVSS
VL: AQVMTQSPSSLSASVGDRVTITCRSSQSVRTNKLAWFQQKPGQPPKRLIYSASTLDFGVPSRFSGSGSGTEFTLTISSLQPEDFATYYCLGYFDSSADIVAFGGGTKVEIK
B2: the binding result in assay [1] is listed as “no binding”; with pTau(S422A) (human), “no binding (tested: 1 ug/ml)”.

B3: VH32/VL22 (antibody, V domains shown)
VH: B2 VH
VL: B2 VL with K33R, F57Y
Consider B3, for which the binding entry was “no binding” in assay [1] and “no binding (tested: 1 ug/ml)” in the assay with pTau(S422A) (human).
